Data taken from patent publication US20230054860A1.
Results are given in words; binding and its absence hold for the method and conditions named. Binding seen in cells or lysates may run through a third protein. Some entries that bind do so weakly or less than the wild type.

Chains of the proteins cited; added tags and fusions are not shown.
UniProt Q9H7D7: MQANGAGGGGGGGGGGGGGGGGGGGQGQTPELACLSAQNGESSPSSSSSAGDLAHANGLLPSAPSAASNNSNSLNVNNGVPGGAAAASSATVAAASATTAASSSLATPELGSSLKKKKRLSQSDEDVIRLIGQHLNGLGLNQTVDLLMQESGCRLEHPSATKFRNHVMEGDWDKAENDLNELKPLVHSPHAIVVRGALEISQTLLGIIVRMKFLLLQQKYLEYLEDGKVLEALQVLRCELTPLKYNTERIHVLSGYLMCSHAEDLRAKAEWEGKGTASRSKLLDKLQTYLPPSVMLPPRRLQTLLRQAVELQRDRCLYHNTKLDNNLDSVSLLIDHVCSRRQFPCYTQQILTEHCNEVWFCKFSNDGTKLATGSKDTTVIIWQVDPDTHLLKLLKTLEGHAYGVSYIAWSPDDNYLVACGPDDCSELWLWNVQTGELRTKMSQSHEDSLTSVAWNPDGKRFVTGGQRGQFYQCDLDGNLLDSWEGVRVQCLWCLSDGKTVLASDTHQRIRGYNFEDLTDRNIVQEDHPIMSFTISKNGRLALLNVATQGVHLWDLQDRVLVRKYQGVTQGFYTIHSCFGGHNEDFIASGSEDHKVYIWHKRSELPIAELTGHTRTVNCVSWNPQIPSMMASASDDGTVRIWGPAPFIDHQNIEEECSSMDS

Legend:
WDR26 (endogenous) [1] = target: WDR26 (endogenous) (UniProt Q9H7D7); assay: co-immunoprecipitation, western blot (FIG. 11b)
WDR26 (endogenous) [2] = target: WDR26 (endogenous) (UniProt Q9H7D7); assay: co-immunoprecipitation of endogenous proteins, western blot, MCF10A and CA1D cells

B1: NOLC1 (also known as Nopp140) (protein, human, UniProt Q14978 1-699, looked up)
chain: MADAGIRRVVPSDLYPLVLGFLRDNQLSEVANKFAKATGATQQDANASSLLDIYSFWLKSAKVPERKLQANGPVAKKAKKKASSSDSEDSSEEEEEVQGPPAKKAAVPAKRVGLPPGKAAAKASESSSSEESSDDDDEEDQKKQPVQKGVKPQAKAAKAPPKKAKSSDSDSDSSSEDEPPKNQKPKITPVTVKAQTKAPPKPARAAPKIANGKAASSSSSSSSSSSSDDSEEEKAAATPKKTVPKKQVVAKAPVKAATTPTRKSSSSEDSSSDEEEEQKKPMKNKPGPYSSVPPPSAPPPKKSLGTQPPKKAVEKQQPVESSEDSSDESDSSSEEEKKPPTKAVVSKATTKPPPAKKAAESSSDSSDSDSSEDDEAPSKPAGTTKNSSNKPAVTTKSPAVKPAAAPKQPVGGGQKLLTRKADSSSSEEESSSSEEEKTKKMVATTKPKATAKAALSLPAKQAPQGSRDSSSDSDSSSSEEEEEKTSKSAVKKKPQKVAGGAAPSKPASAKKGKAESSNSSSSDDSSEEEEEKLKGKGSPRPQAPKANGTSALTAQNGKAAKNSEEEEEEKKKAAVVVSKSGSLKKRKQNEAAKEAETPQAKKIKLQTPNTFPKRKKGEKRASSPFRRVREEEIEVDSRVADNSFDAKRGAAGDWGERANQVLKFTKGKSFRHEKTKKKRGSYRGGSISVQVNSIKFDSE
For B1, which binding (WDR26 (endogenous) [1]) is on record?
The binding was “binds”.

And the binding (WDR26 (endogenous) [2])?
The binding was “binds”.
